Test results from article PMC5404317.
No constants are given. Whether binding was seen depends on the method and setting. Binding seen in cells or lysates may run through a third protein. For part of these data: Binding can be weak; no strength is given.

The chains behind the UniProt entries cited, without tags or fusion partners. Where a name states a change or a piece, a line headed by the entry shows the natural chain unless it says otherwise.
UniProt Q9BXM7: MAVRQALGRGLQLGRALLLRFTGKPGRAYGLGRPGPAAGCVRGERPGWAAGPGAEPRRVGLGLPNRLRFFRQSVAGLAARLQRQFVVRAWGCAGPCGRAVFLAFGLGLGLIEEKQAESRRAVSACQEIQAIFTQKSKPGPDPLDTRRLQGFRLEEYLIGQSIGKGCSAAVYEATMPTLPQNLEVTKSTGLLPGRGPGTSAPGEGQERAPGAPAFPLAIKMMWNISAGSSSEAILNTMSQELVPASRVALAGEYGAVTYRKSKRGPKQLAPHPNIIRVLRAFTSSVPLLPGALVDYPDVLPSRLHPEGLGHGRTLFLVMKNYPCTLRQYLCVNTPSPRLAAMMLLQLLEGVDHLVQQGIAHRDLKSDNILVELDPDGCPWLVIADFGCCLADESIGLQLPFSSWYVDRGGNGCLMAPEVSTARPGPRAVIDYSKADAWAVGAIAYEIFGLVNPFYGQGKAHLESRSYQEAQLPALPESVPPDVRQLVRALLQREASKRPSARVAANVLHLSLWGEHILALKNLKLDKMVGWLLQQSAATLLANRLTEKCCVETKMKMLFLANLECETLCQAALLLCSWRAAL

Tests used:
[1] = target: PINK1-V5 WT (V5-6xHis-tagged PINK1 wild type) (human) (UniProt Q9BXM7); experiment: co-IP; PINK1-V5 precipitated with mouse anti-V5-agarose beads overnight at 4 °C from total lysates of transfected HeLa cells, left untreated or treated with CCCP for 2 h; co-IP buffer 50 mM HEPES pH 7.5, 150 mM NaCl, 10 mM KCl, 1.5 mM MgCl2, 1 mM EDTA, 0.5 mM EGTA, 10% glycerol, 0.2% NP-40; blots for V5, HSP90, CDC37, TOM40
[2] = target: PINK1-V5 p.L347P (V5-6xHis-tagged) (human) (UniProt Q9BXM7); experiment: as above
[3] = target: PINK1-V5 WT (V5-6xHis-tagged PINK1 wild type) (human) (UniProt Q9BXM7); experiment: co-IP; as a1, the samples of HeLa cells left untreated (no CCCP) only

B1: TOM40 (protein, UniProt O96008 1-361)
chain: MGNVLAASSPPAGPPPPPAPALVGLPPPPPSPPGFTLPPLGGSLGAGTSTSRSSERTPGAATASASGAAEDGACGCLPNPGTFEECHRKCKELFPIQMEGVKLTVNKGLSNHFQVNHTVALSTIGESNYHFGVTYVGTKQLSPTEAFPVLVGDMDNSGSLNAQVIHQLGPGLRSKMAIQTQQSKFVNWQVDGEYRGSDFTAAVTLGNPDVLVGSGILVAHYLQSITPCLALGGELVYHRRPGEEGTVMSLAGKYTLNNWLATVTLGQAGMHATYYHKASDQLQVGVEFEASTRMQDTSVSFGYQLDLPKANLLFKGSVDSNWIVGATLEKKLPPLPLTLALGAFLNHRKNKFQCGFGLTIG
What does the source list for B1?
binding [1]: binds; binding [2]: no binding; binding [3]: no binding (only cells without CCCP treatment)
